The median lay at about -60%. The list shows a part of the results. Entries with a potency or affinity are not part of this list. Where no call is shown, the source marks the result inconclusive.
target: Luciferin 4-monooxygenase (Photinus pyralis) (UniProt P08659); test: Luciferase translation or activity inhibitors, H4 neuroglioblastoma cells, luminescence dose response (AID 1990); conditions: H4 neuroglioma cells; at 12 µM (top of the series) unless noted

Chains of the proteins cited; added tags and fusions are not shown.
UniProt P08659, whole entry, looked up: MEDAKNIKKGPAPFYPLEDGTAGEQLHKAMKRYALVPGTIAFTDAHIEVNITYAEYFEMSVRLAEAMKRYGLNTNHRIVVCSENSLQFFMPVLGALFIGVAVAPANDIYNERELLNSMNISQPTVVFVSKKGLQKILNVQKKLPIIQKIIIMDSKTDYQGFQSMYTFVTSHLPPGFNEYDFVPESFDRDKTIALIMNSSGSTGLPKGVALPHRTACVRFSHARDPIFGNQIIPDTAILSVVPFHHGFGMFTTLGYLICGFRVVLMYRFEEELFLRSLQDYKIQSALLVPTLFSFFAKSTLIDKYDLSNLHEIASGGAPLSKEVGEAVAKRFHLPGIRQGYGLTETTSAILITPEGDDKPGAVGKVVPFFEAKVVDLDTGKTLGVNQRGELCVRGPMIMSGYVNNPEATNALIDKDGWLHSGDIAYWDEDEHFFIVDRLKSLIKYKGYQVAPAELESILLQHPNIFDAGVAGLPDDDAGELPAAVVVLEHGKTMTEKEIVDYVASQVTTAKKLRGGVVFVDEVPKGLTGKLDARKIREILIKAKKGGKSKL

Structure (SMILES) | activity change, negative = inhibition
O=C(Nc1ccc(NC(=O)c2cc3ccccc3o2)cc1)c1ccc2c(c1)OCCO2 | -63%
O=C(/C=C/c1ccco1)Oc1cc(Br)cc(/C=N/NC(=O)c2ccccc2O)c1 | -78.6%
Clc1ccc(/C=C/c2nc3ccccc3[nH]2)cc1 | -46.6%
CC(=O)c1ccc(N=Nc2ccc(N(C)C)cc2)cc1 | -65.6%
Cc1cc(C(=O)Cn2nnc3ccccc3c2=O)c(C)n1-c1ccccc1F | -30.2%
Cc1ccc(NC(=O)c2ccc3c(c2)OCCO3)cc1C | -72.9%
Nc1nc(-c2ccc(NC(=O)c3ccco3)cc2)cs1 | -53.8%
COc1ccc(OCc2cccc(C(=O)Nc3cc(C)on3)c2)cc1 | -57.7%
C(=N\Nc1nc2ccccc2[nH]1)/c1ccccn1 | -97.7%
COC(=O)Nc1nc2ccc(C(=O)c3cccs3)cc2[nH]1 | -40.3%
Cc1cnc(NC(=O)COc2ccccc2Cl)s1 | -82.3%
N#Cc1cc2cc3c(cc2nc1SCC(=O)N1CCOCC1)OCCO3 | -72.7%
COc1ccc2c(C)nc(Nc3nc(C)c(C)c(=O)[nH]3)nc2c1 | 161% [at 6 µM]
Nc1nc(Cl)nc2c1ncn2[C@H]1C[C@H](O)[C@@H](CO)O1 | -93.5%
Nc1cccc2nc3ccccc3cc12 | -95.9%
O=C(/C=C\Nc1cccc(F)c1)c1ccc2c(c1)OCO2 | -49.5%
Cc1ccc(N=Nc2cc(C)ccc2N)cc1 | 168% [at 6 µM]
O=C(/C=C/Nc1ccc(Br)cc1F)c1ccccc1 | -69.8%
Cc1cc(C(=O)Nc2ccc3c(c2)OCCO3)ccc1[N+](=O)[O-] | -55.7%

Sorted by formula weight (descending): some entries from above
Structure (SMILES) | activity change, negative = inhibition
COc1ccc2c(C)nc(Nc3nc(C)c(C)c(=O)[nH]3)nc2c1 | 161% [at 6 µM]
Nc1nc(Cl)nc2c1ncn2[C@H]1C[C@H](O)[C@@H](CO)O1 | -93.5%
CC(=O)c1ccc(N=Nc2ccc(N(C)C)cc2)cc1 | -65.6%

Continuation:

Structure (SMILES) | activity change, negative = inhibition
O=C(Nc1ccc(-c2nc3ccccc3s2)cc1)C1=COCCO1 | -96.2%
CCN1/C(=C/c2ccc3cc(C)ccc3[n+]2CC)Sc2ccccc21 | -60.8% [at 3 µM]
COc1ccc(-c2cc3c(nn2)-c2ccccc2C3=O)cc1 | -73.5%
Cc1ccc2c(COC(=O)C3=COCCO3)cc(=O)oc2c1 | -49.3%
O=C1NC(=O)/C(=C\c2ccc(OCc3cccc(C(=O)O)c3)c(Cl)c2)N1 | 1%
CN(C)c1ccc(/C=C/c2nc3ccccc3c(=O)[nH]2)cc1 | -56%
CCc1ccc(CNC(=O)Cc2ccc(NC(=O)C3=C(C)OCCS3)cc2)cc1 | -37.5%
Fc1ccccc1/C=N/Nc1nc(-c2ccccn2)nc2ccccc12 | -75%
O=C1c2ccccc2C(=O)C1c1ccc2ccccc2n1 | -68.6%
c1ccc2nc(-c3nc4ccccc4[nH]3)ccc2c1 | -69.5%
Cc1cc(C(=O)Nc2ccc(Cl)cc2)c(C)n1-c1ccccc1 | -81.5%
COc1cc(NC(=O)N2CCNC2=O)cc(C(=O)Nc2cccc(C(F)(F)F)c2)c1 | -74.7%
Cc1nc(C)c(C(=O)Nc2ncc([N+](=O)[O-])s2)o1 | -55.8%
COc1ccc(N=CC2=C(O)c3ccccc3C2=O)c(OC)c1 | 250% [at 6 µM]
Cc1ccc2nc(-c3ccc(NC(=O)COC(=O)c4ccc([N+](=O)[O-])o4)cc3)sc2c1 | -18.5%
O=C(Nc1ccc(Oc2c(F)c(F)c(F)c(F)c2F)cc1)OC1CCN2Cc3ccccc3N=C12 (stereo not drawn) | -98%
O=[N+]([O-])c1cc(/C=N/n2cnnc2)ccc1N1CCCC1 | -62%
Cc1cn(-c2cc(C(=O)Nc3ccc(C)c(NC(=O)C(=O)c4c[nH]c5ccccc45)c3)cc(C(F)(F)F)c2)cn1 | -51.1%
Cc1ccc(NC(=O)c2ccc3c(c2)OCCO3)nc1 | -57%
